Earlier results in patent publication US5441887A, “Rapid degradation of halogenated hydrocarbons by soluble methane monooxygenase” (Regents of the University of Minnesota, priority 1994, dated 1995).

Tested on: methanogenic mixed bacterial culture
Conditions: 2-day retention time, influent about 15-40 μg/l; cited from earlier work

Structure (SMILES)	Degradation under methanogenic conditions
CC(Cl)(Cl)Cl [1,1,1-trichloroethane]	substantially degraded
ClC(Cl)C(Cl)Cl [1,1,2,2-tetrachloroethane]	substantially degraded
ClC(Cl)=C(Cl)Cl [PCE, tetrachloroethylene]	substantially degraded
ClC(Cl)Br [bromodichloromethane]	substantially degraded
BrC(Br)Br [bromoform]	substantially degraded
ClC(Cl)(Cl)Cl [carbon tetrachloride]	substantially degraded
ClC(Cl)Cl [chloroform]	substantially degraded
ClC(Br)Br [dibromochloromethane]	substantially degraded
